Measurements taken from US10639277B1, “Multi-functional echogenic immunoliposomes for directed stem cell delivery to atheroma” (BOARD OF REGENTS OF THE UNIVERSITY OF TEXAS SYSTEM, priority 2009, dated 2020).
At least one compound was matched to its structure with a doubt left.

What was measured:
canine fetal myoblasts = experiment: SDF-1 induced transwell cell migration; assay type: cell-based; conditions: 5 μM
Protocol: Cells were placed at a concentration of 5×10^4/well in the upper chamber (BD Biosciences), and the chamber was placed in a 24-well culture plate (BD Biosciences) containing culture medium and 100 nM SDF-1 for measuring the migratory capacity of myoblast cells. After 48 hours of incubation at 37° C., the medium was removed, and the insert was transferred to a second plate containing Calcein-AM solution. The plates were incubated for 90 minutes at 37° C. in a 5% CO2 incubator. The fluorescence of migrating cells was read in a fluorescence microplate reader with bottom reading capabilities at excitation/emission wavelengths of 485/530 nm. […] Apoj expression can also provide protection against apoptotic stem cell death. This finding is consistent with published results that ApoJ expression can provide some protection against apoptotic cell death. Exposure to oxidized cholesterol or oxysterol often triggers apoptosis in a variety of cells and atheroma contains abundant oxysterols such as 7-ketocholsterol. Therefore, a study was done to establish that ApoJ expression will exert protective effects against apoptotic cell death for stem cells. After incubation of vascular smooth muscle cells from the aorta of ApoJ-knockout mice or wild-type mice with 10 μg/ml 7-ketocholsterol for 24-48 the cells were examined for viability by stained with a combination of acridine orange and ethidium bromide. […]

KG-293 cells = experiment: TCN-induced ApoJ expression and TNF-α induced apoptosis in KG-293 cells; assay type: cell-based, human; conditions: 1 μg/ml for 24 hours
Description: Recent studies have shown that ApoJ can be induced by certain growth factors such as TGF-ß translocate to the nucleus participating in apoptosis regulation. To determine whether intracellular expression of ApoJ inhibits receptor-mediated apoptosis induced by cytokines, we constructed a plasmid (pkS7) with ApoJ cDNA insert lacking the sequence for the domain of protein secretion. The non-secreted, intracellular isoform of ApoJ gene mimics the intracellular isoform inducible by TGF-ß. Under regulation by a CMV promoter with TCN-responding elements, pKS7 transfection of HEK293 cells generated a stable cell line (KG-293) with ApoJ over expression. […] KG-293 cells over expressing the intracellular form of ApoJ also underwent dramatic alterations in morphology and proliferation.

Structure (SMILES) | effect on SDF-1 induced migration of ApoJ-overexpressing myoblasts (canine fetal myoblasts) | production of intracellular form of ApoJ (Western blot) (KG-293 cells)
O=c1cc(N2CCOCC2)oc2c(-c3ccccc3)cccc12 [LY294002] | attenuated | –
CN(C)[C@@H]1C(O)=C(C(N)=O)C(=O)[C@@]2(O)C(O)=C3C(=O)c4c(O)cccc4[C@@](C)(O)[C@H]3C[C@@H]12 [TCN, tetracycline] | – | much higher levels
